The values below come from PubChem BioAssay AID328 (DTP/NCI, 2004).

The experiment concerns BDF1 mice, P388 leukemia ip, median survival T/C. In words: NCI In Vivo Anticancer Drug Screen. Data for tumor model P388 Leukemia (intraperitoneal) in B6D2F1 (BDF1) mice. As to conditions: T/C endpoint: median survival time, higher T/C = longer survival. The method in brief: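 Steps: implant the tumour, treat one group with compound and another with vehicle, record survival, then divide treated by control.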

The mark [1] stands for this setting: dose: 6.25 mg/kg/injection, schedule: Q01DX009 (ip), vehicle: saline with Tween-80.
[2] abbreviates: dose: 25.0 mg/kg/injection, schedule: Q01DX009 (ip), vehicle: saline with Tween-80.
The mark [3] stands for this setting: dose: 25.0 mg/kg/injection, schedule: Q01DX009 (ip), vehicle: saline.
The mark [4] stands for this setting: dose: 50.0 mg/kg/injection, schedule: Q04DX003 (ip), vehicle: saline.
Setting [5] is: dose: 100.0 mg/kg/injection, schedule: Q04DX003 (ip), vehicle: saline.
[6] abbreviates: dose: 200.0 mg/kg/injection, schedule: Q04DX003 (ip), vehicle: saline.
[7] abbreviates: dose: 400.0 mg/kg/injection, schedule: Q04DX003 (ip), vehicle: saline.
The mark [8] stands for this setting: dose: 12.5 mg/kg/injection, schedule: Q01DX009 (ip), vehicle: saline.
[9] abbreviates: dose: 100.0 mg/kg/injection, schedule: Q01DX009 (ip), vehicle: Klucel (hydroxypropylcellulose) (HPC).
[10] abbreviates: dose: 25.0 mg/kg/injection, schedule: Q04DX003 (ip), vehicle: saline.
Setting [11] is: dose: 100.0 mg/kg/injection, schedule: Q01DX009 (ip), vehicle: saline with Tween-80.
[12] abbreviates: dose: 200.0 mg/kg/injection, schedule: Q01DX009 (ip), vehicle: saline with Tween-80.
Setting [13] is: dose: 400.0 mg/kg/injection, schedule: Q01DX009 (ip), vehicle: saline with Tween-80.
Setting [14] is: dose: 400.0 mg/kg/injection, schedule: Q04DX003 (ip), vehicle: Klucel (hydroxypropylcellulose) (HPC).
[15] abbreviates: dose: 50.0 mg/kg/injection, schedule: Q01DX009 (ip), vehicle: saline with Tween-80.
[16] abbreviates: dose: 200.0 mg/kg/injection, schedule: Q04DX003 (ip), vehicle: saline with Tween-80.
Where [17] appears, read: dose: 100.0 mg/kg/injection, schedule: Q01DX009 (ip), vehicle: saline.

The list does not hold the whole screen: it gathers tests that were run many times, whatever their T/C, doses with no T/C, and many T/C values between a quarter and a half above the control. Further doses and runs are listed elsewhere. T/C: endpoint of the treated group in % of that of the vehicle group. Some entries give survivors of the animals treated and no T/C: the source files T/C as zero there, which appears to mark a toxic dose or a test without result, not a measured value. Some survivor counts are full or nearly so, which does not show that the dose was tolerated: the source hardly ever lists a survival T/C far under the control, and the zero likely stands for such cases as well. Survivors were counted at the toxicity check, usually on the fifth day, unless a day is given; later deaths do not show. Schedule codes are those of the source, taken here to give the interval after Q, in days (D) or hours (H), and the number of doses after X. Where survival is the endpoint, this PubChem deposit counts one and a half times the control or more as active, and values a quarter to a half above the control carry no call in these data; other NCI protocols may use other cut-offs. Some entries were tested several times; the results are listed from low to high. Some T/C values carry the count of animals alive at the toxicity check (mostly the fifth day); where none is given, no animal had died by that day.

Turning to `CC(=O)O[C@H]1[C@H]2O[C@]23[C@@H]2CC[C@@H]4C[C@@H](O)CC[C@]4(C)[C@H]2CC[C@]3(C)[C@H]1c1ccc(=O)oc1`, the survivor count runs as follows: (dose: 15.0 mg/kg/injection, schedule: Q01DX009 (ip), vehicle: Klucel (hydroxypropylcellulose) (HPC)) 6 of 6; (dose: 30.0 mg/kg/injection, schedule: Q01DX009 (ip), vehicle: Klucel (hydroxypropylcellulose) (HPC)) 5 of 6; (dose: 40.0 mg/kg/injection, schedule: Q01DX010 (ip), vehicle: carboxymethylcellulose (CMC)) 0 of 6.
Consider `CCCCCCCCOC(=O)Nc1ccc(OCC)cc1`, for which the survivor count is 6 of 6 under setting [1]; 6 of 6 (dose: 12.5 mg/kg/injection, schedule: Q01DX009 (ip), vehicle: saline with Tween-80); 6 of 6 under setting [2].
As for `COc1ccc2c(c1)/C(=C/CCN(C)C)c1ccccc1S2`, the T/C under setting [3] was 127 and 127 % of control [5 of 6 alive]; the T/C (dose: 33.0 mg/kg/injection, schedule: Q04DX003 (ip), vehicle: saline) is 131 % of control. Besides, the survivor count is, setting by setting: under setting [4], 4 of 6; (dose: 75.0 mg/kg/injection, schedule: Q04DX003 (ip), vehicle: saline) 4 of 6; under setting [5], 4 of 6; under setting [6], 0 of 6; under setting [7], 0 of 6.
For the compound `CN1CCCC1c1cccnc1` (stereo not drawn), the survivor count under setting [8] is 2 of 6.
With `CC1(C)N=C(N)N=C(N)N1c1ccc(CCC(=O)Nc2ccc(S(=O)(=O)F)cc2)cc1`, the T/C runs as follows: (dose: 3.0 mg/kg/injection, schedule: Q01DX009 (ip), vehicle: saline with Tween-80) 125 % of control; under setting [1], 131 % of control; (dose: 100.0 mg/kg/injection, schedule: Q04DX003 (ip), vehicle: saline sonified) 125 % of control; (dose: 200.0 mg/kg/injection, schedule: Q04DX003 (ip), vehicle: saline sonified) 137 % of control; (dose: 400.0 mg/kg/injection, schedule: Q04DX003 (ip), vehicle: saline sonified) 137 % of control.
Take `NC(N)=N/N=C/c1ccc(Cl)c(Cl)c1`: under setting [9], the survivor count was 1 of 6.
`COc1cc(Nc2ncnc(N)c2[N+](=O)[O-])cc(OC)c1OC`: under “dose: 200.0 mg/kg/injection, schedule: Q01DX001 (ip), vehicle: saline with Tween-80”, the survivor count was 6 of 6.
`O=C(CSCSCC(=O)Nc1ccc(C2=NCCN2)cc1)Nc1ccc(C2=NCCN2)cc1`: the T/C under setting [10] is 125 % of control; the T/C (dose: 35.0 mg/kg/injection, schedule: Q01DX009 (ip), vehicle: Klucel (hydroxypropylcellulose) (HPC)) was 137 % of control; the T/C (dose: 50.0 mg/kg/injection, schedule: Q01DX009 (ip), vehicle: Klucel (hydroxypropylcellulose) (HPC)) was 129 % of control; the T/C (dose: 75.0 mg/kg/injection, schedule: Q01DX009 (ip), vehicle: Klucel (hydroxypropylcellulose) (HPC)) is 137 % of control; the T/C (dose: 90.0 mg/kg/injection, schedule: Q04DX003 (ip), vehicle: saline) is 138 % of control. For the same compound, the survivor count is, setting by setting: under setting [6], 4 of 6; (dose: 300.0 mg/kg/injection, schedule: Q04DX003 (ip), vehicle: saline) 3 of 6.
With `CCc1ccc(C(=O)C2CC2)cc1`, the T/C was 130 % of control under setting [11], 135 % of control under setting [12] and 145 % of control [5 of 6 alive] under setting [13].
For `C1CNCOC1`, the T/C is 132 % of control under setting [5] and 146 % of control under setting [6].
Consider `CCC(C)n1ncc2c(N(C)C)ncnc21` (stereo not drawn), for which the survivor count is 6 of 6 (dose: 25.0 mg/kg/injection, schedule: Q01DX009 (ip), vehicle: Klucel (hydroxypropylcellulose) (HPC)); 6 of 6 under setting [9]; 1 of 6 (dose: 200.0 mg/kg/injection, schedule: Q01DX009 (ip), vehicle: Klucel (hydroxypropylcellulose) (HPC)); 2 of 6 under setting [14].
In the case of `CC(C)(Br)C(=O)c1ccc([N+](=O)[O-])o1`, the T/C runs as follows: (dose: 0.78 mg/kg/injection, schedule: Q01DX009 (ip), vehicle: saline) 132 % of control; (dose: 1.56 mg/kg/injection, schedule: Q01DX009 (ip), vehicle: saline) 125 % of control; under setting [8], 133 % of control. For the same compound, the survivor count was 6 of 6 under setting [2]; 6 of 6 under setting [15]; 6 of 6 under setting [11]; 3 of 6 under setting [12]; 2 of 6 under setting [16]; 1 of 6 under setting [13].
As for `CC(=O)Nc1cc2c(cc1Br)-c1ccc(F)cc1C2`, the survivor count reads like this: (dose: 100.0 mg/kg/injection, schedule: Q04DX003 (ip), vehicle: saline with Tween-80) 6 of 6; under setting [16], 6 of 6; (dose: 400.0 mg/kg/injection, schedule: Q04DX003 (ip), vehicle: saline with Tween-80) 5 of 6.
With `OC(Cc1cnc2ccccc2c1)(c1ccccc1)c1ccccc1`, the T/C (dose: 100.0 mg/kg/injection, schedule: Q04DX002 (ip), vehicle: saline with Tween-80) is 140 % of control.
In the case of `CC(=O)[O][Hg][c]1c(N)c(C)cc(C)c1F`, the survivor count is recorded as 3 of 6 (dose: 12.5 mg/kg/injection, schedule: Q04DX003 (ip), vehicle: saline); 1 of 6 under setting [3]; 3 of 6 under setting [10]; 2 of 6 under setting [4]; 0 of 6 under setting [5].
For the compound `Cc1ccc2cc3c(ccc4ccccc43)c3c2c1CC3`, the T/C by setting is: (dose: 11.0 mg/kg/injection, schedule: Q01DX009 (ip), vehicle: saline with Tween-80) 126 % of control; (dose: 16.5 mg/kg/injection, schedule: Q01DX009 (ip), vehicle: saline with Tween-80) 126 % of control; (dose: 150.0 mg/kg/injection, schedule: Q01DX009 (ip), vehicle: saline with Tween-80) 131 % of control; under setting [16], 127 % of control; under setting [13], 129 % of control. The survivor count is listed as 6 of 6 (dose: 22.0 mg/kg/injection, schedule: Q01DX009 (ip), vehicle: saline with Tween-80); 6 of 6 (dose: 33.0 mg/kg/injection, schedule: Q01DX009 (ip), vehicle: saline with Tween-80); 6 of 6 under setting [15]; 6 of 6 (dose: 75.0 mg/kg/injection, schedule: Q01DX009 (ip), vehicle: saline with Tween-80).
As to `C1CNC2NCCNC2N1` (stereo not drawn), the T/C (dose: 88.0 mg/kg/injection, schedule: Q01DX009 (ip), vehicle: saline) is 140 % of control; the T/C under setting [17] is 136 % of control; the T/C under setting [5] is 125 % of control; the T/C (dose: 200.0 mg/kg/injection, schedule: Q01DX009 (ip), vehicle: saline) was 136 and 147 % of control; the T/C under setting [7] was 135 % of control.
Consider `Cc1cc(NC(=O)Nc2cccc(C3=NCCN3)c2)ccc1NC(=O)Nc1cccc(C2=NCCN2)c1`, for which the T/C under setting [12] is 136 % of control.
With `NCC(=O)O.[Cl][Ga]([Cl])[Cl]`, the T/C reads like this: (dose: 50.0 mg/kg/injection, schedule: Q01DX009 (ip), vehicle: saline) 137 % of control; under setting [17], 141 % of control [5 of 6 alive].
Take `CSc1nccc(=O)n1-c1cccc(C(F)(F)F)c1`: under setting [14], the survivor count is reported as 3 of 6.
